Results published in publication PMC11868986, “Identification of Schizophrenia‐Risk Regulatory Variant rs1399178 in the Non‐coding Region With Its Impact on NRF1 Binding”.
The exact form of at least one protein or probe is not confirmed. Where cells or extracts were used, other partners may take part. For some assays here: The comparison behind a weaker result is the experiment's own reference, which may not be listed here. Tags and fusion partners may be left off the protein sequences shown.

Experiments:
[1] = molecular target: T1, NRF1 (SH-SY5Y nuclear extract) (UniProt Q16656); assay: EMSA; settings: band 1 weaker than with G allele, competition also shows G preference, EMSA: Thermo 20148 kit, protein in an extract, label: 3' biotin
T1 sequence (looked up, limits assumed): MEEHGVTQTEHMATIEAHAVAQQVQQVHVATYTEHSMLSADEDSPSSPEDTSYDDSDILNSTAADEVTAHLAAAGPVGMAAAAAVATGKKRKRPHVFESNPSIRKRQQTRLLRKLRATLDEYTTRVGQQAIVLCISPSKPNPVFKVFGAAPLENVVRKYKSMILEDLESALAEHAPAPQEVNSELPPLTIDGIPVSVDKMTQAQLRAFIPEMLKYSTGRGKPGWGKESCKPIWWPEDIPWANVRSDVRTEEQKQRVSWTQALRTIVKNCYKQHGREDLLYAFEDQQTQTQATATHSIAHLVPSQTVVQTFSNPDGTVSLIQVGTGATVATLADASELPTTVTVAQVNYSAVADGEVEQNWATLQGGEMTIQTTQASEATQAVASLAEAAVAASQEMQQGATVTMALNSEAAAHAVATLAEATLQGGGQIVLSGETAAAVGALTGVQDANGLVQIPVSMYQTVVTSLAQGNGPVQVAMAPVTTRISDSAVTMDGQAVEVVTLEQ

[2] = molecular target: T1, NRF1 (SH-SY5Y nuclear extract); assay: EMSA supershift; settings: anti-NRF1 antibody, EMSA: Thermo 20148 kit, protein in an extract, label: 3' biotin

| Sequence | binding result [1] | binding result [2] |
| --- | --- | --- |
| CACCCTCCTGGGCGCAGCCACAGCTGCCCAAACTGCA (double strand) [rs1399178-A EMSA probe] | binds more weakly |  |
| CACCCTCCTGGGCGCAGCCGCAGCTGCCCAAACTGCA (double strand) [rs1399178-G EMSA probe] |  | binds |
